From article PMC6626145 come the findings set out here.

By UniProt entry, the sequences of proteins in these tests, tags left out.
UniProt A0AAR7: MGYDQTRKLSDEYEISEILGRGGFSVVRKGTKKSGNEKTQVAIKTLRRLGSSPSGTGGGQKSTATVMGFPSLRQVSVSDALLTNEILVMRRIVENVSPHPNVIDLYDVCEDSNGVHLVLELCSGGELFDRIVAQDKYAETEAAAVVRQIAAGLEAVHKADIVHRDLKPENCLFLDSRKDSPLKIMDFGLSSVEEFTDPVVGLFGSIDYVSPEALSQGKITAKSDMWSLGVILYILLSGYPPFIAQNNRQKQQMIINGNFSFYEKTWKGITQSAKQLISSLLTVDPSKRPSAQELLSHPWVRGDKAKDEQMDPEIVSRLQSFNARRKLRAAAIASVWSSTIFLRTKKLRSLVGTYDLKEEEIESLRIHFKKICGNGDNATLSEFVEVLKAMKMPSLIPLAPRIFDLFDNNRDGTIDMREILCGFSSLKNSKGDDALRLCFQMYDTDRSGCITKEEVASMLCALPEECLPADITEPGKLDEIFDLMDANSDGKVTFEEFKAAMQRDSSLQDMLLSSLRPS

These are yes or no findings as the source states them, for the method shown. For some of these results: Binding seen in cells or lysates may run through a third protein. Some entries that bind do so weakly or less than the wild type. For some of these results: Tags and fused reporters may be left off the sequences shown.

The target of assay [1] is T1, StrepII-SUMO-CYCLOPS (Lotus japonicus) (UniProt A9XMT3).
T1 sequence: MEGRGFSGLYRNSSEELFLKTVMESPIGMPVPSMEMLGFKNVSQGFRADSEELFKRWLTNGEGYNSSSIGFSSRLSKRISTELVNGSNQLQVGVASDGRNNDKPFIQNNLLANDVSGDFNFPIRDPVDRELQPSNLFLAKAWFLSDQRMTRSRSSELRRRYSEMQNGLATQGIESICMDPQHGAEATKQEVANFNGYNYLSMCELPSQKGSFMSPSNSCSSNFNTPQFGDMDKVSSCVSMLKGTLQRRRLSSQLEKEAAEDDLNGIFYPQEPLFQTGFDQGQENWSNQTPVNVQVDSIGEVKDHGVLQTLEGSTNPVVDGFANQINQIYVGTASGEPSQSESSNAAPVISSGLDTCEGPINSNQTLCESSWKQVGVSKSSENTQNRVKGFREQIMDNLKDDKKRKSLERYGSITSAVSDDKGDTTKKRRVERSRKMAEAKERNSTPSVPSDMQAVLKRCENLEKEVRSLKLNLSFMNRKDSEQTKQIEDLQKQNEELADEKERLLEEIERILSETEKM
The assay is described as follows: pull-down; StrepII-SUMO-CYCLOPS and His-SUMO-CCaMK co-expressed in E. coli; lysate supernatant on Strep-Tactin sepharose beads, 1 hour, 4 °C; 100 mM Tris pH 7.8, 150 mM NaCl, 5 mM DTT; eluted with 2.5 mM desthiobiotin; SDS-PAGE of eluted fractions.

Assay [2] addresses T1, StrepII-SUMO-CYCLOPS (Lotus japonicus). In words: SEC; co-purified complex (Strep-Tactin, then heparin column) on Superose 6 increase 10/300 GL; 50 mM Tris pH 7.8, 150 mM NaCl, 4 mM DTT; SDS-PAGE of fractions; both purified. In general terms: In gel filtration, larger molecules generally elute earlier.
Assay [3] concerns the target CCaMK fused to the GAL4 binding domain (BD) (Lotus japonicus). The assay is described as follows: two-hybrid; yeast strain AH109; Gal4BD and Gal4AD fusions from pYeast 2 µ Leu 1-2 and pYeast 2 µ Trp 3-4; growth on -LWAH solid media, 28 °C, 4 days.

Consider “His-SUMO-CCaMK (from UniProt A0AAR7 1-518) (enzyme)”, for which the binding result in assay [1] and in assay [2] was “binds” in each case.

B1: deletion variant of CYCLOPS (amino acids 84–366) (domain or fragment, UniProt A9XMT3 84-366)
chain: VNGSNQLQVGVASDGRNNDKPFIQNNLLANDVSGDFNFPIRDPVDRELQPSNLFLAKAWFLSDQRMTRSRSSELRRRYSEMQNGLATQGIESICMDPQHGAEATKQEVANFNGYNYLSMCELPSQKGSFMSPSNSCSSNFNTPQFGDMDKVSSCVSMLKGTLQRRRLSSQLEKEAAEDDLNGIFYPQEPLFQTGFDQGQENWSNQTPVNVQVDSIGEVKDHGVLQTLEGSTNPVVDGFANQINQIYVGTASGEPSQSESSNAAPVISSGLDTCEGPINSNQTL
Regarding B1, the binding result in assay [3] is listed as “binds”.

B2: CYCLOPS fused to the GAL4 activation domain (AD) (protein, UniProt A9XMT3 1-518)
chain: T1 sequence
Take B2: in assay [3], the binding result is reported as “binds”.
